Our source for the binding values is patent publication EP3791713A1.

These are yes or no findings as the source states them, for the method shown. Some binding calls cover weakened binding; strength is not graded here.

For this test, the target named is T1, Mp10 (SEQ ID NO:4), factor of Myzus persicae, a member of the OS-D superfamily (Myzus persicae).
T1 sequence: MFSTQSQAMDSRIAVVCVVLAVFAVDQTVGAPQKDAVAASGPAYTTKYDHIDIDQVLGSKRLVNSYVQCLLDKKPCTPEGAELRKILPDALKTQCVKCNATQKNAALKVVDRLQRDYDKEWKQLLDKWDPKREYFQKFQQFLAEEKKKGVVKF
The experiment in a line: yeast two-hybrid.

B1: Arabidopsis thaliana AMSH2 (SEQ ID NO:3), wild type (protein)
chain: MVTLSSPSPSLSCVENVTCKSSHVSRVLISGTDNINHGESSEAKILRDVHISERLLEDFTELARENTEKDLETCGTLAAFLERGIFYVTTLIIPKQESTSNSCQAMNEVEVFSIQNERELYPVGWIHTHPSQGCFMSSVDLHTHYSYQVMVPEAFAIVVAPTDSSKSYGIFKLTDPGGMEVLRGCSETGFHPHKEPEDGNPVYEHCSNVYKNSNLRFEIFDLR
Consider B1, for which the binding entry is on record as “binds”.
